Test results published in patent EP4806989A2, “CULTURE MEDIUM” (Koninklijke Nederlandse Akademie van Wetenschappen, priority 2014, dated 2016).
At least one compound was matched to its structure with a doubt left.

What was measured:
[1] = test system: Cftr KO lung organoids; test: Forskolin induced swelling assay in mouse lung organoids ± Cftr; type: cell-based; settings: 10µM forskolin, 3h; Cftr KO compared with wild-type
[2] = test system: human intestinal organoids; test: Swelling assay in healthy human intestinal organoids (control); type: cell-based; settings: imaged for 2h

Structure (SMILES): C=C[C@@]1(C)CC(=O)[C@]2(O)[C@@]3(C)[C@@H](O)CCC(C)(C)[C@@H]3[C@H](O)[C@H](OC(C)=O)[C@@]2(C)O1 [forskolin]
- organoid swelling [1]: swelled much less
- organoid swelling [2]: only respond to forskolin
